Laboratory results taken from patent US20250144094A1 (Erasca, Inc., priority 2021, published 2025).
The match of structure and compound is tentative.

The chains behind the UniProt entries cited, without tags or fusion partners. Residues count along the entry.
UniProt O75385, 1-649 limits assumed: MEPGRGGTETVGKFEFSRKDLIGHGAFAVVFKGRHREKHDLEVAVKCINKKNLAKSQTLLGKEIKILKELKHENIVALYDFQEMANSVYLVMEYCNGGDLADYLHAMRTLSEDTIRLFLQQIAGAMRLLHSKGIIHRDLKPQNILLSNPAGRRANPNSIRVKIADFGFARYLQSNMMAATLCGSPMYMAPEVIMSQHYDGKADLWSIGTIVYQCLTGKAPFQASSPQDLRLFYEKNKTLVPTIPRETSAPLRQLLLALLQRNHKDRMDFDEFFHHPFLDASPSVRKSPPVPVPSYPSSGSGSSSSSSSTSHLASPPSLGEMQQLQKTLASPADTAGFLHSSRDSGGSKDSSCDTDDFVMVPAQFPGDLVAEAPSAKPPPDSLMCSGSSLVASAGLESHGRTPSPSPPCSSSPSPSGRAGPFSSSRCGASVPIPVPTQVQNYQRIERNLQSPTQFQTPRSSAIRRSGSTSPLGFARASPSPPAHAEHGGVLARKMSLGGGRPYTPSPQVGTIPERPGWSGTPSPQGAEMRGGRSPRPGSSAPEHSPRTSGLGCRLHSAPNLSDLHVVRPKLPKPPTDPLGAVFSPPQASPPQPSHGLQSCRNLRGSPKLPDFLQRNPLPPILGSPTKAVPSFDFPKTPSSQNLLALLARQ

Biological target: Recombinant human ULK1 (1-649) (Homo sapiens (Human), UniProt O75385)
Assay: ULK1 ADP Glo kinase activity assay (MBP substrate)
Conditions: read-out: ULK1 biochemical IC50, 25° C., 40 minutes
Method: Recombinant human ULK1 (1-649) protein expressed in Sf9 insect cells was obtained from SignalChem (Vancouver, BC), catalog #U01-11G. Active kinase was purified via N-terminal GST tag to >85% purity.
ADP GLO Kinase Assay Reagents were obtained from Promega Corp (Madison, WI), catalog #V9104.
MBP (myelin basic protein) substrate, bovine, purified, was obtained from Sigma (St. Louis, MO), catalog #M1891.
ULK1 inhibitor potency was determined using the luminescent ADP Glo Kinase Assay (Promega), a universal ADP detection system that measures kinase activity by quantifying the amount of ADP produced during a kinase reaction. ULK1 kinase reactions are performed in a standard 96-well microplate (20 uL reaction volume) at 25° C. for 40 minutes in the presence or absence of the test compound (12-point dilution series starting at 10 uM). […]
The standard ADP Glo assay is performed in two steps. […] In the second step, the Kinase Detection Reagent (10 uL) is added to simultaneously convert ADP to ATP and allow the newly synthesized ATP to be measured using a luciferase/luciferin reaction. […] Thirty minutes after the addition of the Detection reagent, light generated from the luciferase reaction is measured (1 second exposure) using a microplate compatible luminometer (CLARIOstar, BMG Labtech).
Inhibition of ULK1 kinase activity is determined for each test compound by comparison to DMSO only control wells. […]

IC50: < 10 nM
SMILES: CN1Cc2cc(Cl)c(Nc3ncc(C(F)(F)F)c(-c4cc(S(C)(=O)=O)cs4)n3)cc2C1
